# Data reported in the supplement of paper PMC7666118.
# By UniProt entry, the sequences of proteins in these tests, tags left out. Where a name states a change or a piece, a line headed by the entry shows the natural chain unless it says otherwise.
# UniProt O75367, whole entry: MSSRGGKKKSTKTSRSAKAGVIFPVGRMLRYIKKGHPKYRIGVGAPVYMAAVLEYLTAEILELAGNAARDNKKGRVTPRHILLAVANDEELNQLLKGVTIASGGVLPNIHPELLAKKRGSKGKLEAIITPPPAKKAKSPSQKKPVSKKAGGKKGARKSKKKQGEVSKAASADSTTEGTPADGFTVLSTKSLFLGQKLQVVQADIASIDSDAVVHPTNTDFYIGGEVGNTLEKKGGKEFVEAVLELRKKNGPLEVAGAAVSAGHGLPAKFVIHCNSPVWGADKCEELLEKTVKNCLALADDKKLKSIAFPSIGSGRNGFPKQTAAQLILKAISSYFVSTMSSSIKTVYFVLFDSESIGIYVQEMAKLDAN
# UniProt O15347: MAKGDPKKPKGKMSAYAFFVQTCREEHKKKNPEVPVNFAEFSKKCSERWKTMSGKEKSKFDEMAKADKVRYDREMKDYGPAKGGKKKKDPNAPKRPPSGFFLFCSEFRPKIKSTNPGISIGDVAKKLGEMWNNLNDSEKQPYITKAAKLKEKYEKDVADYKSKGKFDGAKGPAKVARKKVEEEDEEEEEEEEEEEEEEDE
# UniProt P43250, whole entry, looked up: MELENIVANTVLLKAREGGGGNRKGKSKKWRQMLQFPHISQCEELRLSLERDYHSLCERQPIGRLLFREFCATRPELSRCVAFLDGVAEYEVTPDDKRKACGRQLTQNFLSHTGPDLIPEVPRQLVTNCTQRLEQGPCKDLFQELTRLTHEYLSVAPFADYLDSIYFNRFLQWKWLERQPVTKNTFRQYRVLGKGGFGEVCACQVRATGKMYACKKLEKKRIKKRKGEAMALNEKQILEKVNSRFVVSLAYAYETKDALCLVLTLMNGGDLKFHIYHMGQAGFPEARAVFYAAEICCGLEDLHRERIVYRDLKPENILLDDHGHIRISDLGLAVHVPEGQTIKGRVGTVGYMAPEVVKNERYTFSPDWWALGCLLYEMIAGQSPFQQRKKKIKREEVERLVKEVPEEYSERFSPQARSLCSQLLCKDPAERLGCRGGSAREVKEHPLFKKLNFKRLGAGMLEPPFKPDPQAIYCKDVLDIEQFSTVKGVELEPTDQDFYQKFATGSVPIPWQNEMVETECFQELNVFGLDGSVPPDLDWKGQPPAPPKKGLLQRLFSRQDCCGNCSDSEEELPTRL
# UniProt Q8NG08: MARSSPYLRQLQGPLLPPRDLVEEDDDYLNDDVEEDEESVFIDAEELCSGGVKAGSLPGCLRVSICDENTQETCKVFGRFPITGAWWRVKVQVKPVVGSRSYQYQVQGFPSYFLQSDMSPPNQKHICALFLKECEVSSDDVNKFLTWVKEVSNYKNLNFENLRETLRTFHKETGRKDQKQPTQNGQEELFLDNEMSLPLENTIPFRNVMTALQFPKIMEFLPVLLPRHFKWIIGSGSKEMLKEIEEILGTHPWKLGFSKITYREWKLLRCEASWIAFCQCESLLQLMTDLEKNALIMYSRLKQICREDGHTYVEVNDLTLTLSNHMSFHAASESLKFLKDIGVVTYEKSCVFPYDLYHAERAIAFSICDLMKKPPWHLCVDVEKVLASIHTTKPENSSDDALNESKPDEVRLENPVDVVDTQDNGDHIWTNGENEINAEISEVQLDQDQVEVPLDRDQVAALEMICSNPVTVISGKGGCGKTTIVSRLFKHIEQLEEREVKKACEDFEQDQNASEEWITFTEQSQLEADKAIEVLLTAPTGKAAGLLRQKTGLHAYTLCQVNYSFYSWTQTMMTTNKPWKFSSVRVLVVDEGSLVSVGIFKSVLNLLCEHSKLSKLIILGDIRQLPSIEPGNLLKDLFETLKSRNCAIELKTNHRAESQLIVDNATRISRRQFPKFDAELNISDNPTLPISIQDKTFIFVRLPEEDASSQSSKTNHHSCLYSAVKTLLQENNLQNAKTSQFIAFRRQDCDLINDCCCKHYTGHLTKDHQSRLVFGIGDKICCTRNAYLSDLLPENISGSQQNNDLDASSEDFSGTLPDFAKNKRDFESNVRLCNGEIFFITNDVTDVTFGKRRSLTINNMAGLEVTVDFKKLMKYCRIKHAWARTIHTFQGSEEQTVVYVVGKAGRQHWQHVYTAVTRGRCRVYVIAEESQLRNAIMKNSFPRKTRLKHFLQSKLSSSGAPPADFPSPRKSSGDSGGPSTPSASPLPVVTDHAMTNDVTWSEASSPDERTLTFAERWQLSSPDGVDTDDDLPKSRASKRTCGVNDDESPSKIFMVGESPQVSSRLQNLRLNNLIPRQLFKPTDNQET
# UniProt Q9UGU5: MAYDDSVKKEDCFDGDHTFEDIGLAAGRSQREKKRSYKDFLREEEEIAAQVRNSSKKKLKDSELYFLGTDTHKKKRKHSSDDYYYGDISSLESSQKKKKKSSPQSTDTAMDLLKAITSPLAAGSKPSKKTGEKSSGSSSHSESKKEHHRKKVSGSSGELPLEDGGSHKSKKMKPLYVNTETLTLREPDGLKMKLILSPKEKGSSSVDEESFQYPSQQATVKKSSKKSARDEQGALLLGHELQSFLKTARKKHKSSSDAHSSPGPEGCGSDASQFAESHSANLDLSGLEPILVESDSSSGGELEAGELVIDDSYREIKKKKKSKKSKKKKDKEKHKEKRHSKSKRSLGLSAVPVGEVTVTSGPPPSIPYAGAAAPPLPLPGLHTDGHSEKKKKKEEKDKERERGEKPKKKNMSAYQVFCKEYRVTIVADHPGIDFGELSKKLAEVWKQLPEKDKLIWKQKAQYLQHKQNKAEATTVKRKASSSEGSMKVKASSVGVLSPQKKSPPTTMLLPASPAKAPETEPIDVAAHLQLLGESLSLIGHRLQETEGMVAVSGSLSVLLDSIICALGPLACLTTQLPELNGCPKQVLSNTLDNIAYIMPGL
# UniProt P05114: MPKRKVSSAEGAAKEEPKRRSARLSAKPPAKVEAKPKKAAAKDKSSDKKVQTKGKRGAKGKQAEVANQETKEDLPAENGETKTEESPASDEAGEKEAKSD
# UniProt P06865: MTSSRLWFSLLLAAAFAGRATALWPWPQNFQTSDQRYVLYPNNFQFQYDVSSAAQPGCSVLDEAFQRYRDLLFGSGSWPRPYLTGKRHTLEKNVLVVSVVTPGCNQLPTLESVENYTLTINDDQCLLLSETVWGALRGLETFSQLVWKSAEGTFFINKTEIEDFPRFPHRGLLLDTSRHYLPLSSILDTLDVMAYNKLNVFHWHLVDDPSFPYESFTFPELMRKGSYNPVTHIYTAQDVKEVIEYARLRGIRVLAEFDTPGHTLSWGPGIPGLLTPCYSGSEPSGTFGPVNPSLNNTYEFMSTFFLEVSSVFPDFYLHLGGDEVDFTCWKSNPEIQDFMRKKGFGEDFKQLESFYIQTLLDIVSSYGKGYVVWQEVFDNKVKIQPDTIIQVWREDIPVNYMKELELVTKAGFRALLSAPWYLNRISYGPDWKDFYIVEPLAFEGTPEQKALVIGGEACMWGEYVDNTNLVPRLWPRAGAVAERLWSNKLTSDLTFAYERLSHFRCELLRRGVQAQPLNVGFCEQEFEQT
# UniProt Q9H4A5: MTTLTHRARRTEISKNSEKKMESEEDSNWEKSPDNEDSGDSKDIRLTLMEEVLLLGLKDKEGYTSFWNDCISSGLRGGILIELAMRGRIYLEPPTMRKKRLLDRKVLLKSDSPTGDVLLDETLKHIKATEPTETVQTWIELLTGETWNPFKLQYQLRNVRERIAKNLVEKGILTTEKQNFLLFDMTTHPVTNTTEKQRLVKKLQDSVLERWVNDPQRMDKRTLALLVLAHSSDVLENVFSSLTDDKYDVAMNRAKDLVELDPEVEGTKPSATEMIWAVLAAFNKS
# UniProt Q96MH2: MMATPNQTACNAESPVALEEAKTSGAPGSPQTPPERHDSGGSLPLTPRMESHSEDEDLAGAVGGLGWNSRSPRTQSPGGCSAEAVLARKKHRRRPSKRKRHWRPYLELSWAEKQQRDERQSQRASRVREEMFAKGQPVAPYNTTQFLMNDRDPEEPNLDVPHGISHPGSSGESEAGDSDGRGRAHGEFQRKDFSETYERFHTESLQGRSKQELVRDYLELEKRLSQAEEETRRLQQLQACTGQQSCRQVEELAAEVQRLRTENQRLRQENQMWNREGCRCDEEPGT
# UniProt P49840: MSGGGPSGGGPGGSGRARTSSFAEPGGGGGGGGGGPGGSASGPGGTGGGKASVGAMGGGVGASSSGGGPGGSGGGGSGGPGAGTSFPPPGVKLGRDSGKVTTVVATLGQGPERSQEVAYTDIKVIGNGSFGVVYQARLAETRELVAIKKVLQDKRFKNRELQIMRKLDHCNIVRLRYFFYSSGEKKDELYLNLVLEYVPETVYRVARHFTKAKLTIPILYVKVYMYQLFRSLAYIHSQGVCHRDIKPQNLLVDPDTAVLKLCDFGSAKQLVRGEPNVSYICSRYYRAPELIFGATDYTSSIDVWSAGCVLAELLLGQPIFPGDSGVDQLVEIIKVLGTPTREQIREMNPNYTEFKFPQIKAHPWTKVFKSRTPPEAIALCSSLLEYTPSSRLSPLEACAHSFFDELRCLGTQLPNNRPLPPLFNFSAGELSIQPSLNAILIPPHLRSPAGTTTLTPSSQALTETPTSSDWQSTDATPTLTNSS
# UniProt P19367: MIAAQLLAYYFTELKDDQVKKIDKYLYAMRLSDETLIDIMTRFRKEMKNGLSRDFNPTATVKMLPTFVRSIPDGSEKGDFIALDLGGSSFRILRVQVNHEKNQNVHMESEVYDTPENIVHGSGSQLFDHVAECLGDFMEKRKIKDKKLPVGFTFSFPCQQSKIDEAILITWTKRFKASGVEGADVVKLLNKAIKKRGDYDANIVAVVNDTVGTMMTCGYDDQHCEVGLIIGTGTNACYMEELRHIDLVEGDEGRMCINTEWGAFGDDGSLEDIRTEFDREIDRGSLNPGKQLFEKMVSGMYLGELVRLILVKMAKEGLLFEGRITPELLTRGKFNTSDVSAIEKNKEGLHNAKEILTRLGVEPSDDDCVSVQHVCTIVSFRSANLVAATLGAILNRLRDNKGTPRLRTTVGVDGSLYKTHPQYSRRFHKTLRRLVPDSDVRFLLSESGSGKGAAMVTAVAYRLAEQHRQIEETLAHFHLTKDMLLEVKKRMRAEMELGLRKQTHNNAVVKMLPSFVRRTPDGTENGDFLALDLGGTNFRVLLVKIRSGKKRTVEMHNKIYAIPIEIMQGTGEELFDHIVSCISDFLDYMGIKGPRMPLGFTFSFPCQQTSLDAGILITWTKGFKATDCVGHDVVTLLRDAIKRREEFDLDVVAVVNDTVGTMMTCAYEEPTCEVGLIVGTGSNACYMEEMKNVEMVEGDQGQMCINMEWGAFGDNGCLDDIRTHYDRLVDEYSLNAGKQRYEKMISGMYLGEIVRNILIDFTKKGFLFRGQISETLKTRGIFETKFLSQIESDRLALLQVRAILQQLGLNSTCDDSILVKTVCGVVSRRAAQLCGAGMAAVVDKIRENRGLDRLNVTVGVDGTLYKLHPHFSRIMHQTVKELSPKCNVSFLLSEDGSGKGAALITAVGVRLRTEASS
# UniProt Q92619: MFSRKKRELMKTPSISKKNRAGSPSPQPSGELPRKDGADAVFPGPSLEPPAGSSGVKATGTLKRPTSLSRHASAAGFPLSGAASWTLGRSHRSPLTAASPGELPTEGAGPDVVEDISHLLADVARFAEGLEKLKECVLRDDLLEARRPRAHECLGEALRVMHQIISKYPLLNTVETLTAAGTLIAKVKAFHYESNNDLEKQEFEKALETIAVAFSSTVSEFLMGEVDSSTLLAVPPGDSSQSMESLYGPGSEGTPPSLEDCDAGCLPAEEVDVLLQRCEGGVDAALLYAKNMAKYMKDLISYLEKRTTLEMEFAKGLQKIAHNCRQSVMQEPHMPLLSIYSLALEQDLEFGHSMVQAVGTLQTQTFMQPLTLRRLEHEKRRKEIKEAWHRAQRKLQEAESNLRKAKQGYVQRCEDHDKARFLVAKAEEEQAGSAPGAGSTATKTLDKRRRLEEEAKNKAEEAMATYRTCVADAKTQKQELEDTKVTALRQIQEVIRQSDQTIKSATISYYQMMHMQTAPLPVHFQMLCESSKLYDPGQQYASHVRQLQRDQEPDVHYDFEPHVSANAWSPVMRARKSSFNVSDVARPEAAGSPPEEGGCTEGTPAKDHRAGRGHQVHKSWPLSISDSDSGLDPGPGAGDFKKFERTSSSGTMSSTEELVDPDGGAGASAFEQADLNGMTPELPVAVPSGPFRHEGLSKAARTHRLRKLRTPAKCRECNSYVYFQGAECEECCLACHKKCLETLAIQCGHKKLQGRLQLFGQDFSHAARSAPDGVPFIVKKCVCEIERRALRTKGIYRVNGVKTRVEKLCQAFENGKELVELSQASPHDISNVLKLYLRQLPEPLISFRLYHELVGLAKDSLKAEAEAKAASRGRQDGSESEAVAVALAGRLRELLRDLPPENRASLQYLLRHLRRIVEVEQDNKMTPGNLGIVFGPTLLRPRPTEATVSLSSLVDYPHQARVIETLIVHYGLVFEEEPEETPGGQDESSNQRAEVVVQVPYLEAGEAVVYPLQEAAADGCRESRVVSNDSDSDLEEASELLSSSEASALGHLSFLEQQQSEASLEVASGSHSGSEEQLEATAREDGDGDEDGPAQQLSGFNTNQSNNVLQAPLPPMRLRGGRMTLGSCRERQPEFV
# Some of the results follow.
# Compound: COc1ccc(Cn2ccc3cc(C)c(C(=O)NO)cc32)cc1
# Assay: dose-dependent thermal stabilisation call (2D-TPP, DLPTP, 10% FDR) (binary (1 = stabilised)); higher = stabilised by the compound
# Conditions: system: HL-60 intact cells; concentration range 0.04-10 µM
# Experimental: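 2D thermal proteome profiling in intact HL-60 cells treated with BRD-3811 (0, 0.04, 0.29, 2, 10 uM) for 90 min at 37 C, then heated 3 min at one of 12 temperatures (42-63.9 C). Soluble protein was quantified by TMT10 MS. The value is the DLPTP call of the paper: dose-dependent thermal stabilisation over all temperatures at 10% FDR (F-test of a dose-response against a flat model); one experiment, one call per tested protein.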
row,Target,dose-dependent thermal stabilisation call
1,GPN2 (UniProt Q9H9Y4),inactive: 0
2,H2AFY (UniProt O75367),inactive: 0
3,HMGB3 (UniProt O15347),inactive: 0
4,HSD17B10 (UniProt Q99714),inactive: 0
5,GPD2 (UniProt P43304),inactive: 0
6,GOT1 (UniProt P17174),inactive: 0
7,GRK6 (UniProt P43250),inactive: 0
8,HN1L,inactive: 0
9,HNRNPR (UniProt O43390),inactive: 0
10,HM13 (UniProt Q8TCT9),inactive: 0
11,GOLGA2 (UniProt Q08379),inactive: 0
12,HELB (UniProt Q8NG08),inactive: 0
13,GTPBP4 (UniProt Q9BZE4),inactive: 0
14,HMGXB4 (UniProt Q9UGU5),inactive: 0
15,GTF3A (UniProt Q92664),inactive: 0
16,GSS (UniProt P48637),inactive: 0
17,HMGN1 (UniProt P05114),inactive: 0
18,HEXA (UniProt P06865),inactive: 0

# For convenience, some entries already given:
row,Target,dose-dependent thermal stabilisation call
6,GOT1 (UniProt P17174),inactive: 0
7,GRK6 (UniProt P43250),inactive: 0

# Later entries.

row,Target,dose-dependent thermal stabilisation call
1,HISPPD2A (UniProt Q6PFW1),inactive: 0
2,GOLPH3L (UniProt Q9H4A5),inactive: 0
3,HNRNPUL2 (UniProt Q1KMD3),inactive: 0
4,GORASP2 (UniProt Q9H8Y8),inactive: 0
5,HNRNPH3 (UniProt P31942),inactive: 0
6,HSPA13 (UniProt P48723),inactive: 0
7,HEXIM2 (UniProt Q96MH2),inactive: 0
8,HDHD2 (UniProt Q9H0R4),inactive: 0
9,HSPC152 (UniProt Q9UI30),inactive: 0
10,HIST2H2BA,inactive: 0
11,GTF2H3 (UniProt Q13889),inactive: 0
12,HIST1H1C (UniProt P16403),inactive: 0
13,GSK3A (UniProt P49840),inactive: 0
14,HK1 (UniProt P19367),inactive: 0
15,HCG_21078,inactive: 0
16,HARS (UniProt P12081),inactive: 0
17,GPX1 (UniProt P07203),inactive: 0
18,HMHA1 (UniProt Q92619),inactive: 0
